{"source": "PubChem BioAssay AID1508600", "about": "(Functional Genomics Laboratory (NCATS/FGL), 2020)", "note": "Hit rate of the full screen: of about 53,000 sequences, about 3,700 (7%) were called active.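 How the source made its calls: active means gene knockdowns whose robust z-score for IL-1 alpha signal is at least 2 or at most -2, so actives lie on both sides; inactive means the rest.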 The list shows a part of the results."}
{"test": "Components of the Cytosolic LPS Sensing Pathway: Gene Identification via Genome-wide siRNA Screen;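 further: robust z of the log signal after scaling to non-targeting control siRNA wells of the plate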", "details": "RAW264.7 macrophages, IL-1a HTRF, actives lie on both sides, screened at 100 nM (by protocol), cells primed 5 h with Pam3CSK4 first", "in_short": "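Using IL-1a HTRF as read-out, the screen measured release from RAW264.7 cells after 48h siRNA knockdown (100 nM), 5 h Pam3CSK4 priming and 24 h cytosolic LipidA. Values were expressed relative to negative-control wells as robust z-scores.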"}
{"sequence": "GGUUGAUAAAGGAGCCAUCTT against Mcts1", "z-score": "inactive: 1.02"}
{"sequence": "GGCUCCUGUGCAUAUCUAATT against Olfr116", "z-score": "inactive: -0.449"}
{"sequence": "GGAUAUGAACAAUAGCAUATT against Kcna1", "z-score": "active: 2.2"}
{"sequence": "GGUGACCCACUACUGUAAGTT against Trim46", "z-score": "inactive: 0.373"}
{"sequence": "GGUUACGUUGUACGAAAUCTT against Nt5c1b", "z-score": "inactive: 1.49"}
{"sequence": "GGUACGAUCACUCCAAAACTT against Clk1", "z-score": "inactive: 0.537"}
{"sequence": "GGAACUACCUUGAAGAGGATT against Tmem59", "z-score": "inactive: -0.844"}
{"sequence": "GGAAGUAAGGAAAUCAAAATT against Gspt2", "z-score": "inactive: 0.66"}
{"sequence": "GGAAACAGAGAAGAUCAUUTT against Kif1a", "z-score": "inactive: -0.397"}
{"sequence": "GGAAUGAAUAAAGCUACUUTT against Fah", "z-score": "inactive: -0.799"}
{"sequence": "GGUAGCAUAGGCUAGCAUATT against Crcp", "z-score": "inactive: 0.0494"}
{"sequence": "CCGACAGCACUUGUCUUGATT against Fbxo4", "z-score": "inactive: -0.244"}
{"sequence": "GGUGUUCUUCACUGACUACTT against Lrp1", "z-score": "inactive: 0.574"}
{"sequence": "GCAGUUAUUCAAAUUUGCCTT against Keg1", "z-score": "inactive: -0.551"}
{"sequence": "CUAUGACACUUGGUUCCAUTT against Nxpe5", "z-score": "inactive: 1.69"}
{"sequence": "GGCAAAAUGGUUUUUUGUUTT against Hepacam2", "z-score": "inactive: -0.239"}
{"sequence": "CCUUUUCAAGCUAACAACATT against Gba2", "z-score": "inactive: -0.0808"}
{"sequence": "GGAUUCCUCUAACACAUUUTT against Keg1", "z-score": "active: 2.07"}
{"sequence": "GGAAAUGACUCUCUAUGGCTT against Cyp4f13", "z-score": "inactive: -1.15"}
{"sequence": "CCAAUAAAAUUGGUGUUCCTT against H13", "z-score": "inactive: 0.18"}
{"sequence": "GCAUAGUCAAGGUCAGAUCTT against Gpr107", "z-score": "inactive: -0.00643"}
{"sequence": "GGAAGUCGACCUUAUAGUUTT against Hhipl2", "z-score": "inactive: 0.5"}
{"sequence": "GCAGUAUAUCCUACAUUGGTT against Olfr510", "z-score": "inactive: 1.3"}
{"sequence": "GGCAGUGGUUAAAGGUUCCTT against Lrp6", "z-score": "active: 2.27"}
{"sequence": "GCAAAAGUUAACGAUUUCCTT against Wdr41", "z-score": "inactive: 1.67"}
{"sequence": "CCUUAGCCACUUUUUGGCCTT against Dhrsx", "z-score": "inactive: 0.867"}
{"sequence": "CCAAUUGUGAAGAUGUUUGTT against Eif3e", "z-score": "inactive: -1.21"}
{"sequence": "GCAUAUUGGCUCAUCCUUUTT against Anapc2", "z-score": "inactive: -0.383"}
{"sequence": "GCGAAUUCGUGAGAAGAGCTT against Ripk4", "z-score": "inactive: -0.884"}
{"sequence": "GGAAUCGAGAAUUACUACGTT against Tspan15", "z-score": "inactive: -0.353"}
{"sequence": "GGGUGUGAAGGAGUUCAAGTT against Zfp710", "z-score": "inactive: 1.34"}
{"sequence": "GGUGACCUUACCUAAUGUATT against Mettl18", "z-score": "inactive: 0.578"}
{"sequence": "GGACUACUGAAUUCUUUUATT against Nectin2", "z-score": "inactive: -1.06"}
{"sequence": "UGAAGAAUAAGGAACUCAUTT against AA467197", "z-score": "inactive: 1.69"}
{"sequence": "GGGAAGACCAUUUUUAAAUTT against Zfp78", "z-score": "inactive: 1.91"}
{"sequence": "GGUGCUUUGCUCUUUCUUGTT against Mrfap1", "z-score": "inactive: 0.311"}
{"sequence": "GCUCUCGUAGACUGCUAUATT against Ppp1r14c", "z-score": "active: 2.13"}
{"sequence": "GGACACAGACACCAAACAATT against Kat2a", "z-score": "inactive: -1.71"}
{"sequence": "GGAAGAUUUAGGUUCUACUTT against Def8", "z-score": "inactive: 1.43"}
{"sequence": "CGACCUACCUUUAAGCUUGTT against Gnptab", "z-score": "inactive: 1.43"}
{"sequence": "CCUAAGUACUGUAAGAAUATT against Mycn", "z-score": "inactive: 0.506"}
{"sequence": "CCACUAUUCUGUCAAAGGGTT against Pmm2", "z-score": "inactive: -0.537"}
{"sequence": "GCUCGAGGACUAUAUGAAUTT against Xrcc1", "z-score": "active: 2.03"}
{"sequence": "GGACAAAGCAAUCCACAUCTT against Wdr55", "z-score": "inactive: -0.564"}
{"sequence": "GCAGAUGGGCAUCUAUGCUTT against Trpv1", "z-score": "inactive: -0.427"}
{"sequence": "GUUAUAGCGGCGAAGGUGUTT against Maml3", "z-score": "inactive: 1.02"}
{"sequence": "GGCAUGACAUCAUUGCAUGTT against Mapre2", "z-score": "inactive: 0.381"}
{"sequence": "GGAAGCUCUACCAGGUUAATT against Capg", "z-score": "inactive: 0.479"}
{"sequence": "GCCAUGUUAAAUUCUCUACTT against Poln", "z-score": "inactive: 0.575"}
{"sequence": "GGAACUGUAGAUUGUGUACTT against Pdcd4", "z-score": "inactive: 1.52"}
{"sequence": "GGUUGCUACAAGAUUACUATT against Rps27l", "z-score": "inactive: 0.809"}
{"sequence": "GGUGAAGCAUGAGUUUAAATT against Arl5b", "z-score": "inactive: 0.324"}
{"sequence": "GCAAGUAUUUUACAGGUGCTT against Lman1", "z-score": "inactive: -0.516"}
{"sequence": "GGUCUUGUGCAUAAAACAGTT against Ece2", "z-score": "inactive: -1.06"}
{"sequence": "GGAGCAUGUAGAGGUUUACTT against Txnrd2", "z-score": "active: 2.44"}
{"sequence": "GGAGUGGGAGAAGAUGGAATT against Mbd4", "z-score": "active: 2.17"}
{"sequence": "GGUAUUAUUUCUGAAUGCCTT against Mtrf1l", "z-score": "inactive: -0.0601"}
{"sequence": "GGCCACAAGUUUUCAGACGTT against Actl7b", "z-score": "inactive: 1.15"}
{"sequence": "GGGACUACCUGAAUAAUGUTT against Tspan12", "z-score": "inactive: -0.351"}
{"sequence": "GGCCCUUACUUCCACAUCATT against Fam104a", "z-score": "inactive: -0.711"}
{"sequence": "CCAAACCGAUAUAUAAAGUTT against Ddx51", "z-score": "inactive: -0.9"}
{"sequence": "GGCCCAUAUCCACAUGAUGTT against Uxt", "z-score": "inactive: -1.9"}
{"sequence": "CCCUUAUCCCAAUAAUAAGTT against Spag5", "z-score": "inactive: -1.78"}
{"sequence": "GGAGCUUCCACAACUCAUATT against Esd", "z-score": "inactive: -0.456"}
{"sequence": "GGACAUUGCUGCCUAUAUCTT against Dynll2", "z-score": "inactive: 0.452"}
{"sequence": "GGAAGAUGGGAACAGCACUTT against Rsad2", "z-score": "inactive: 0.209"}
{"sequence": "CCACUUCUUUCCAUGAACUTT against Slc6a4", "z-score": "inactive: 0.7"}
{"sequence": "GGCAAGUUCCGAGAAGGGATT against Irf4", "z-score": "inactive: -0.483"}
{"sequence": "GGAUGGUCUGCUAUUACAUTT against Phf7", "z-score": "inactive: 0.832"}
{"sequence": "GGAAGUUGUGUGACAGAAATT against Lcn8", "z-score": "inactive: 0.41"}
{"sequence": "GCUUCUAAGCUUUAGAGGGTT against Rassf10", "z-score": "inactive: -1"}
{"sequence": "GGGAGAAGAGAUUCUGAUATT against Sh2d1a", "z-score": "inactive: -0.117"}
{"sequence": "GGUUCUCAUUGUUGUUGUATT against Prkcb", "z-score": "inactive: -0.339"}
{"sequence": "GGGACUAUGGUGUCAGAAATT against Clec4n", "z-score": "inactive: 0.533"}
{"sequence": "GGAUGGUGGCAUUUUACAGTT against 2810407A14Rik", "z-score": "inactive: 0.514"}
{"sequence": "GCUAGAGGAGUUUCUAAACTT against Clu", "z-score": "inactive: 0.0975"}
{"sequence": "GGGUAUAACUGUCAAACAGTT against Tbc1d24", "z-score": "inactive: -1.83"}
{"sequence": "GGCCAUUGUUACUGGAAAATT against Elmo2", "z-score": "inactive: -0.353"}
{"sequence": "GGCAGGCAACCAAUCAAAUTT against Npepps", "z-score": "inactive: 1.29"}
{"sequence": "GGAAAAAUGUAAUAAGCCATT against Dram2", "z-score": "inactive: 0.86"}
{"sequence": "GGCUGAAGUUCAAGGAUUGTT against Vmn1r49", "z-score": "inactive: -1.7"}
{"sequence": "GGCAGAAACUAGCAGAAGATT against Gdf2", "z-score": "inactive: 0.286"}
{"sequence": "CCUCAUGCAGUUAAAUAUGTT against Kera", "z-score": "inactive: -1.56"}
{"sequence": "GGACUUAGCUUUGUUUCCUTT against Nip7", "z-score": "inactive: -0.493"}
{"sequence": "GCAGAGAAUCGGACUUUCCTT against Gpatch2l", "z-score": "inactive: -1.27"}
{"sequence": "GGAUAACCUAUCGAAUCUCTT against Dsg4", "z-score": "inactive: 1.26"}
{"sequence": "GGUAGAGGAGAUCUUCAAGTT against Entpd5", "z-score": "inactive: -1.24"}
{"sequence": "CCGUGAAGGGUGAACUUAUTT against Ldhal6b", "z-score": "inactive: 0.537"}
{"sequence": "CGUUGUCUAAAUUGUGAAATT against Kpna3", "z-score": "inactive: 1.25"}
{"sequence": "GGGUCAGAUUUUCAAUGUCTT against Bmpr1b", "z-score": "inactive: 0.8"}
{"sequence": "CCAAAGAUCGGGAAAAGGATT against Defb28", "z-score": "inactive: -1.52"}
{"sequence": "CCCUGCUAUCAGCAUCACATT against Hacd3", "z-score": "active: -3.09"}
{"sequence": "GGUGCAUUCAUUAUCUUAATT against Ikbkb", "z-score": "inactive: 1.57"}
{"sequence": "GGUAUUUCAUGAACAUCACTT against Grin2d", "z-score": "inactive: 0.416"}
{"sequence": "GCUACUUGGAGUGGAUCUGTT against Klk15", "z-score": "inactive: 1.15"}
{"sequence": "GGAAAUGGAAUCAAGACAGTT against Eif5", "z-score": "inactive: 0.913"}
{"sequence": "CCAUGACCUCACUGAAGUCTT against Slc26a6", "z-score": "inactive: 0.751"}
{"sequence": "GGUUUUAUGAUAAGGCUCATT against Olfr895", "z-score": "inactive: -0.583"}
{"sequence": "GAUAUCACAGAUCUGUUGUTT against Krtap13", "z-score": "inactive: -0.431"}
{"sequence": "GCACGGCGAAAAAAUCUUCTT against Katnal2", "z-score": "inactive: -0.167"}
{"sequence": "CGCAUCUGUUUCUUUUCCCTT against 1700029P11Rik", "z-score": "active: -2.22"}
{"sequence": "GGUAAUGGGAGCUUUUGGGTT against Vmn1r228", "z-score": "inactive: -0.168"}
{"sequence": "GGUUUUGACCAUAAAAGAATT against Zfp830", "z-score": "inactive: -1.73"}
{"sequence": "GGAACUAGUCUGGUGAACUTT against Apoa2", "z-score": "inactive: -1.35"}
{"sequence": "GGCUUCUUCCUAGAAAUGCTT against Them7", "z-score": "inactive: -0.689"}
{"sequence": "GGAUGUCAGGACAAAACCATT against Olfr1335", "z-score": "active: -2.51"}
{"sequence": "GGCGUAUUCUGGUAUCCAGTT against Celf1", "z-score": "active: 2.08"}
{"sequence": "GGUGACUUUCUGUAAUCAUTT against Id3", "z-score": "inactive: 1.65"}
